# Reference: PubChem BioAssay AID2685 (National Center for Advancing Translational Sciences (NCATS), 2010)
# This is one part of the list. Further columns of the screen follow, without active or inactive calls. Most of these compounds were active or inconclusive in the main read-out, so they are no random draw. Words in brackets tell the shape of the fitted curve; partial curves, single points and poor fits give uncertain potencies.
# Assay: qHTS Assay for Lipid Storage Modulators in Drosophila S3 Cells;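 for cell number change: cells counted by Cell Tracker Red CMTPX staining in the red channel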
# Details: BODIPY lipid droplet fluorescence, 18-24 h; for cell number change: measured here: cell count max response, cells fed with added oleic acid
# In short: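 Drosophila S3 cells loaded with oleic acid (400 uM, as added) and compounds at several concentrations; lipid droplets imaged by 488-nm laser-scanning cytometry, 500–530 nm intensity and object ratio to cell channel. Percent activity normalized to 20 uM Triacsin C.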
# [1] = measured here: lipid fluorescence (Fed channel) AC50, cells fed with added oleic acid
# [2] = measured here: cell number channel AC50, cells fed with added oleic acid
compound,measurement,setting,value
CN1/C(=C\C=C(C#N)C#N)C(C)(C)c2ccccc21,cell number change,,-6.85%
same,AC50,[1],"18.4 µM [falling, single point]"
COc1ccc(CNC(=O)c2cccc(S(=O)(=O)N3CCCCC3)c2)cc1OC,cell number change,,-39.5%
same,AC50,[2],"16.4 µM [falling, partial curve]"
CCOC(=O)C/C(C)=N/NC(=O)c1cccs1,cell number change,,6.75%
same,AC50,[1],"0.092 µM [falling, full curve, poor fit]"
CCN1CCc2c(sc(NC(=O)Cc3ccccc3)c2C(=O)OC)C1,cell number change,,-5.48%
same,AC50,[1],"6.51 µM [rising, single point]"
COc1cccc(C(=O)/C=C2\NCCc3cc(OC)c(OC)cc32)c1,cell number change,,4.5%
CC1CN(C(=O)COc2ncnc3ccccc23)CC(C)O1 (stereo not drawn),cell number change,,155%
same,AC50,[2],"29.1 µM [rising, single point]"
same,AC50,[1],"29.1 µM [rising, single point]"
COc1cc(S(=O)(=O)NCc2ccncc2)c(OC)cc1Br,AC50,[1],"18.4 µM [falling, partial curve]"
O=C(CN1C(=O)NC2NC(=O)NC21)N/N=C/c1ccccc1F (stereo not drawn),cell number change,,-49.8%
same,AC50,[2],"20.6 µM [falling, partial curve]"
same,AC50,[1],"29.1 µM [falling, single point]"
CCCn1c2ccccc2c2nnc(SCC(=O)OCC)nc21,cell number change,,-19.1%
same,AC50,[1],"29.1 µM [rising, single point]"
COc1cc(CN2CCN(C(=O)c3cccc4ccccc34)CC2)cc(OC)c1OC,cell number change,,16.9%
same,AC50,[1],"32.6 µM [rising, single point]"
Nc1sc2c(c1C(=O)NC1CCS(=O)(=O)C1)CCCC2 (stereo not drawn),cell number change,,12%
O=C1CCC(=O)N1c1ccc(S(=O)(=O)Nc2cccc([N+](=O)[O-])c2)cc1,cell number change,,2.76%
same,AC50,[1],"29.1 µM [rising, single point]"
C[C@@H](C(=O)Nc1ccc2ccccc2c1)[C@H]1C[C@]1(C)[C@H](NC(=O)c1cnccn1)c1ccccc1,cell number change,,5.19%
same,AC50,[1],"2.91 µM [rising, full curve, poor fit]"
Cc1cccc(OCC(=O)Nc2cc(Cl)ccc2-n2cncn2)c1C,AC50,[2],"1.03 µM [rising, partial curve]"
c1ccc(-c2nc(NCc3cccs3)c3ccccc3n2)cc1,cell number change,,23%
same,AC50,[1],"29.1 µM [rising, single point]"
Cc1ccc(S(=O)(=O)N2CCOCC2)cc1C(=O)N1CCOCC1,cell number change,,2.66%
same,AC50,[1],"0.103 µM [rising, full curve, poor fit]"
CC(NC(=O)c1ccc(C(=O)c2ccccc2)cc1)c1ccc(S(N)(=O)=O)cc1 (stereo not drawn),cell number change,,4.91%
same,AC50,[1],"0.366 µM [falling, partial curve, poor fit]"
COc1ccc(C2C(C)C3(O)CC(C#N)(C(=O)N3)C2(C#N)C#N)cc1 (stereo not drawn),cell number change,,-41.1%
same,AC50,[2],"29.1 µM [falling, single point]"
N#Cc1nc(COc2ccc(Br)cc2)oc1N1CCCC1,cell number change,,-20.7%
same,AC50,[1],"0.651 µM [rising, single point]"
O=C(CCNS(=O)(=O)c1ccc(Br)s1)NCc1ccccc1Cl,cell number change,,-16.6%
same,AC50,[1],"0.82 µM [falling, full curve, poor fit]"
CC(=O)c1ccc(N2CCN(Cc3nc(Cc4ccccc4)no3)CC2)cc1,cell number change,,8.23%
same,AC50,[1],"0.00411 µM [rising, full curve, poor fit]"
NS(=O)(=O)c1ccc(-c2c(-c3ccccc3)sc3ccccc23)cc1,cell number change,,-19.5%
same,AC50,[1],"1.16 µM [rising, single point]"
Cc1c(NS(=O)(=O)c2ccc(N3CCCCC3)c([N+](=O)[O-])c2)c(=O)n(-c2ccccc2)n1C,cell number change,,-27.1%
same,AC50,[2],"0.116 µM [falling, full curve, poor fit]"
same,AC50,[1],"0.00411 µM [falling, full curve, poor fit]"
CCOc1ccc(S(=O)(=O)N(C)CC(=O)N2CCN(CC)CC2)cc1,cell number change,,-0.435%
same,AC50,[1],"6.51 µM [rising, single point]"
O=C(CSc1cccc2cccnc12)Nc1ccc(S(=O)(=O)N2CCOCC2)cc1,cell number change,,-59%
same,AC50,[2],"29.1 µM [falling, single point]"
same,AC50,[1],"29.1 µM [falling, single point]"
COc1cccc(NC(=O)c2ccc(CN3CCOCC3)cc2)c1,cell number change,,-2.31%
CCOc1ccc(OCCC(=O)N(CC)CC(=O)NCc2ccc(Cl)cc2)cc1,cell number change,,88.5%
same,AC50,[2],"18.4 µM [rising, single point]"
CSc1cccc(NS(=O)(=O)c2cccc3nsnc23)c1,cell number change,,5.41%
same,AC50,[1],"29.1 µM [rising, single point]"
CCOc1ccc(N2C(=O)CC(N3CCN(C(=O)c4ccco4)CC3)C2=O)cc1 (stereo not drawn),cell number change,,-11.5%
same,AC50,[1],"29.1 µM [rising, single point]"
N#Cc1ccc(CSc2nnc(-c3ccccn3)n2-c2ccccc2)cc1,cell number change,,34.6%
same,AC50,[2],"1.84 µM [rising, partial curve]"
CC(Oc1ccccc1F)C(=O)NNC(=O)CCNC(=O)c1ccco1 (stereo not drawn),AC50,[2],"2.31 µM [rising, partial curve]"
CCOC(=O)C(NC(C)=O)(N1CCc2ccccc2C1)C(F)(F)F (stereo not drawn),cell number change,,-9.04%
same,AC50,[1],"6.51 µM [falling, partial curve, poor fit]"
O=C(COC(=O)c1ccccn1)Nc1c(Cl)cccc1Cl,AC50,[1],"29.1 µM [falling, single point]"
CCCc1nnc(NC(=O)CCC(=O)NCc2ccccc2Cl)s1,cell number change,,10.3%
CCCNC(=O)COC(=O)c1ccc(OCC(=O)Nc2ccccc2OC)c(OC)c1,cell number change,,13.5%
same,AC50,[1],"0.731 µM [rising, single point]"
CCc1nnc(NC(=O)c2cnccn2)s1,cell number change,,19%
CC(=O)Nc1ccc(S(=O)(=O)Oc2ccc(/C=C3\SC(N)=NC3=O)cc2)cc1,cell number change,,3.21%
same,AC50,[2],"6.51 µM [falling, single point]"
same,AC50,[1],"4.61 µM [falling, single point]"
O=C1/C(=C\c2ccc(-c3ccccc3Cl)o2)SC(=S)N1CC1CCCO1 (stereo not drawn),cell number change,,17.7%
COc1ccc(C(=O)O)cc1Nc1cc(C)nc2ncnn12,cell number change,,15.6%
same,AC50,[1],"0.731 µM [falling, full curve, poor fit]"

# Reformatted with tabs: part of the list above
compound	measurement	setting	value
c1ccc(-c2nc(NCc3cccs3)c3ccccc3n2)cc1	cell number change		23%
same	AC50	[1]	29.1 µM [rising, single point]
Cc1ccc(S(=O)(=O)N2CCOCC2)cc1C(=O)N1CCOCC1	cell number change		2.66%
same	AC50	[1]	0.103 µM [rising, full curve, poor fit]
CC(NC(=O)c1ccc(C(=O)c2ccccc2)cc1)c1ccc(S(N)(=O)=O)cc1 (stereo not drawn)	cell number change		4.91%
same	AC50	[1]	0.366 µM [falling, partial curve, poor fit]
COc1ccc(C2C(C)C3(O)CC(C#N)(C(=O)N3)C2(C#N)C#N)cc1 (stereo not drawn)	cell number change		-41.1%
same	AC50	[2]	29.1 µM [falling, single point]
N#Cc1nc(COc2ccc(Br)cc2)oc1N1CCCC1	cell number change		-20.7%
same	AC50	[1]	0.651 µM [rising, single point]
O=C(CCNS(=O)(=O)c1ccc(Br)s1)NCc1ccccc1Cl	cell number change		-16.6%
same	AC50	[1]	0.82 µM [falling, full curve, poor fit]
CC(=O)c1ccc(N2CCN(Cc3nc(Cc4ccccc4)no3)CC2)cc1	cell number change		8.23%
same	AC50	[1]	0.00411 µM [rising, full curve, poor fit]
NS(=O)(=O)c1ccc(-c2c(-c3ccccc3)sc3ccccc23)cc1	cell number change		-19.5%
same	AC50	[1]	1.16 µM [rising, single point]
Cc1c(NS(=O)(=O)c2ccc(N3CCCCC3)c([N+](=O)[O-])c2)c(=O)n(-c2ccccc2)n1C	cell number change		-27.1%
same	AC50	[2]	0.116 µM [falling, full curve, poor fit]
same	AC50	[1]	0.00411 µM [falling, full curve, poor fit]
CCOc1ccc(S(=O)(=O)N(C)CC(=O)N2CCN(CC)CC2)cc1	cell number change		-0.435%
same	AC50	[1]	6.51 µM [rising, single point]
